Some of the results follow.
B1: il10ra_site1_sap_26_mot_9c3e5e2d2b9ffb70dc788f52fbfab6d5_0001_1_000000198_0001_1_14_H_._HHH_b1_03834_0001_0000100001_0000001_0_0001 (protein)
chain: SSSSSDEEEERIEELEEEIRQIDDPREFVRLLLELVRLAFQSRDPEALQLAMELARELVSSSSSS
B2: il10ra_site1_normal_mot_HHH_b2_07521_000000141_0001_20_37_H_._HHH_b2_04176_0001_0000400030_0000001_0 (protein)
chain: SSSSDRYVELAIKFAKALIKNGDLEAARRLLEAAAQIAEKLNNPELLEEIQELIKEVEELGSSSS
B3: il10ra_site1_sap_17_mot_HHH_b2_00076_000000055_0001_40_55_H_._HHH_b1_01022_af2_0001_0000200011_0000001_0_0001 (protein)
chain: SSSSTRYEEVEKIIREALELAENGDPEEAEELLRRLEEKLEELGDRVVLHSVRHALRDVEQSSSS
B4: il10ra_site1_sap_12_mot_e1dd4851c59bc1cdde016f988f6856bd_0001_1_000000200_0001_16_31_H_._HEEHE_3255_0001_0000100006_0000001_0_0001 (protein)
chain: SSSSSTEEALENMIESLELALELGDEHYIENALRFLELLARYLKDEEAERVVEEVKRELNSSSSS
B5: il10ra_site1_sap_16_mot_HHH_b2_02463_af2_000000222_0001_1_19_H_._HHH_b2_03785_0001_0000100002_0000002_0_0001 (protein)
chain: SSSSSEEEIEELLRRIKELIEEGDREEAHELLRRAIYLAARLNDPELYEKVLQLYLLLQRLSSSS
B6: il10ra_site1_normal_mot_HHH_b1_00929_000000068_0001_1_20_H_._HHH_b2_05703_0001_0000400028_0000001_0 (protein)
chain: SSSSSLERIWELLRRALELAAEGDPELEEEAKELVEEAKELARDPFQRSNIRLVEEQVERSSSSS
B7: il10ra_site1_normal_mot_HHH_b2_07569_000000265_0001_38_56_H_._HHH_b2_02901_0001_0000200009_0000001_0 (protein)
chain: SSSSDEEREEVEELLEEAKEIEDPEERIEVLLEATQLALEIQDPEAVQLVWRAAKELFKKSSSSS
B8: il10ra_site1_normal_mot_HHH_b1_05056_000000217_0001_1_20_H_._HHH_b2_02768_0001_0000400021_0000001_1 (protein)
chain: SSSSSSDVEERVEELLEEAEEIEDPREAARVLLEALRFALQASDERALQLVWEVVKRISSSSSSS
B9: il10ra_site1_sap_13_mot_HHH_b2_06664_af2_000000263_0001_19_36_H_._1c46792b9528a305c301eb4762002c6b_0001_0001_0000100003_0000001_0_0001_af2pred_0001 (protein)
chain: SSSSSDERDELAFEHLLWSAKNSDNEQLIRAALRFAREAAEKLNDPELEKEVEKLEEELSSSSSS
B10: il10ra_site1_normal_mot_HHH_b1_02004_000000220_0001_1_19_H_._HHH_b2_04613_af2_0001_0000200009_0000001_0 (protein)
chain: SSSSTDEEFELVKELVKRASELAENGNPEEAEKLLEEAERLAEESNNEALRFSVEHALRLLSSSS
B11: il10ra_site1_sap_24_mot_HHH_b1_04100_af2_000000180_0001_1_19_H_._HHH_b2_06464_af2_0001_0000100002_0000002_0_0001_af2pred_dldesign_0_af2pred (protein)
chain: SSSSSDRAVARASIRYSLEAAKELEDEEARKLCIDQALKDAEALEDAELVAEVEAFRKEISSSSS
B12: il10ra_site1_normal_mot_HHH_b2_07245_000000008_0001_1_20_H_._HHH_b1_07746_0001_0000100004_0000001_1 (protein)
chain: SSSSSDEREEEARELLEEAKHIDDPRERIRVLLEALQLAYEANNRELLEEIWRVIKRLASSSSSS
B13: il10ra_site1_normal_mot_8756ee2cf497b5429c717dfc0c0bcfd6_0001_000000186_0001_1_13_H_._HHH_b2_06757_af2_0001_0000400020_0000001_0_af2pred_0001 (protein)
chain: SSSSSTAQAAQELVRLIREALKIEDEEEAKEVLEEAKELAEENNNLNVLAVLEYLLKLLSSSSSS
B14: il10ra_site1_normal_mot_HHH_b2_06497_000000202_0001_1_20_H_._HHH_b2_07621_af2_0001_0000700020_0000001_0_af2pred_0001 (protein)
chain: SSSSSSREELIREAVKLLHKAARIDDEEEVEELLRKVEEIAEQTNNPLLEHSVEAIKRALSSSSS
B15: il10ra_site1_sap_21_mot_HHH_b1_02397_af2_000000085_0001_39_57_H_._HHH_b2_07560_af2_0001_0000500016_0000001_0_0001 (protein)
chain: SSSSDEHYERLKELIERIVEALRRNDPEKVEELLRELEELIEENNNWSARFALEILEKQLSSSSS
B16: il10ra_site1_normal_mot_HHH_b2_00441_000000147_0001_1_18_H_._HHH_b1_06240_0001_0000100005_0000002_0 (protein)
chain: SSSSDLERYVELALRFVEALLKSGDPEAAELLARAILDVAEQNNNPELVEEIEELLEEVRKSSSS
B17: il10ra_site1_sap_11_mot_HHH_b2_05343_000000235_0001_19_35_H_._HHH_b2_02528_0001_0000100006_0000001_0_0001 (protein)
chain: SSSSSEEVYELLKEAIELLAEGNPEEARKVLEEARELAEEENNQVFRMQIEFLERLIERRSSSSS
B18: il10ra_site1_sap_27_mot_HHH_b1_08697_af2_000000298_0001_1_18_H_._HHH_b1_05552_0001_0000100007_0000001_1_0001 (protein)
chain: SERQRAIRIAFQRSDPEVLHALWELVHALARDPNNEEAREVLRLLIEALEEGDPEKVEEAVELAR
B19: il10ra_site1_normal_mot_HHH_b2_06497_000000202_0001_1_20_H_._HHH_b2_07621_af2_0001_0000700020_0000001_0 (protein)
chain: SSSSSSTRELNEEAYRLLRRAAEIDDEEEVEELLRKVEEIAEQTNNPILEFSVRAIRRALSSSSS
B20: il10ra_site1_sap_17_mot_65b8060e20531850bca9f2e11f97d954_0001_af2_000000137_0001_17_31_H_._HHH_b2_06821_0001_0000800089_0000001_0_0001_af2pred_0001 (protein)
chain: SSSSSSFERLIELSRRALELLRQGDKEEAREVLKEAEELAEELGDLYAEWALEAIERIINSSSSS
B21: il10ra_site1_sap_21_mot_HHH_b2_00886_000000053_0001_41_55_H_._HHH_b2_00886_0001_0000600064_0000001_0_0001 (protein)
chain: SSSSSEEEERVEELLEEAEHVTDPRELSRLLQEAVQLAFEAQNPELLRLVWRVVKKLGEKSSSSS
B22: il10ra_site1_sap_14_mot_HHH_b1_00456_000000263_0001_1_17_H_._HHH_b2_02299_0001_0000100002_0000001_0_0001 (protein)
chain: SSSSSDEEVRELLEEAEEARERGNPEEARRLLLEALRLIFQLRDPELLRQLWELVHKLFSSSSSS
B23: il10ra_site1_normal_mot_HHH_b1_05326_000000242_0001_1_20_H_._HHH_b1_06334_0001_0000100009_0000001_0 (protein)
chain: SSSSDILEEVLELSREAFRALLRGDPERVRELLERMEELLEELNDPAIKKAIENIELALNSSSSS
B24: il10ra_site1_sap_14_mot_d910f416147260c93593610934442136_0001_000000186_0001_34_49_H_._HHH_b1_06970_af2_0001_0000200018_0000001_0_0001 (protein)
chain: SSSSSSSLREAYELVEEAFEIEDPQEVRELLEEALELAEENNSWAFHFSIRHALEALRSSSSSSS
B25: il10ra_site1_sap_24_mot_HHH_b1_07527_000000076_0001_1_15_H_._HHH_b1_08233_0001_0000200013_0000001_0_0001 (protein)
chain: SSSSDVLERSVEFALKAAEELAKAGDPEAARALLEVLFRLLEEAGDPELLREVEELLEELSSSSS
B26: il10ra_site1_sap_23_mot_HHH_b2_00441_000000147_0001_1_18_H_._HHH_b2_03827_0001_0000100005_0000003_0_0001_af2pred_dldesign_0_af2pred (protein)
chain: SLDDELAARAAELGVPAAELAALRAEARRLAGGDERAALVILARLLNEAGLPELARIVSRAFLSS
B27: il10ra_site1_sap_19_mot_HHH_b2_00093_af2_000000025_0001_40_54_H_._5ea7f752dde0811aa0a69b69c7e6f7e7_0001_af2_0001_0000400018_0000001_0_0001 (protein)
chain: SSSSDVSRRIYELSREAMELLREGNPEEAEEVAEEARELAEEANDRIMLVQVEFVLRQINSSSSS
B28: il10ra_site1_normal_mot_HHH_b1_01693_000000146_0001_1_17_H_._HHH_b1_05536_af2_0001_0000300019_0000002_0_af2pred_0001 (protein)
chain: SSSSDEEEREEAQELLEEAKKIEDPEEILQVLAEAAILAARANDEELLKEILKLIVEKLRSSSSS
B29: il10ra_site1_normal_mot_HHH_b2_04679_000000194_0001_21_38_H_._HHH_b2_06224_0001_0000200020_0000002_0 (protein)
chain: SSSSSDEEIREEVEELIKRLEEVDTQEAYELLREAIELARELNDPRLFELVFRAVQEWLHSSSSS
B30: il10ra_site1_sap_15_mot_b26a303360aa2756ef5b79665ce52f45_0001_000000179_0001_1_11_H_._HHH_b2_00874_0001_0000200028_0000002_0_0001 (protein)
chain: SSSSDEEERVLELLLQAAQAFIEGNPEEVEKLLEEAEELAKESNNPELEEAVETAQRIMRNSSSS
B31: il10ra_site1_normal_mot_HHH_b1_06029_000000174_0001_1_17_H_._HHH_b2_05210_0001_0000300024_0000001_0_af2pred_0001 (protein)
chain: SSSSSESEALFRSARELVELLLEEGNEERARRTLRLIIELLELLGDEELAKRLQELLEEISSSSS
B32: il10ra_site1_sap_23_mot_HHH_b2_04656_000000137_0001_41_56_H_._HHH_b1_03237_0001_0000100002_0000001_0_0001 (protein)
chain: SSSSNEEAQELFELLRELVEAVREGDEEAVEEIFEEIEKLAREANNRLALLQAEFALKLFNSSSS
B33: il10ra_site1_normal_mot_b26a303360aa2756ef5b79665ce52f45_0001_000000179_0001_1_11_H_._HHH_b1_05166_0001_0000200030_0000001_0_af2pred_0001 (protein)
chain: SSSSSLAEEIKRIVEEIAELLREGNPEEAEKLAEEAIREVEERGNEIAAFNLRHLLKIVRSSSSS
B34: il10ra_site1_sap_7_mot_774d882d7ae63910a49ba8e2c216af69_0001_1_000000290_0001_18_33_H_._HHH_b1_08328_af2_0001_0000500012_0000001_0_0001 (protein)
chain: SSSSSEELKEEVEELLEEAKEIEDPRKANEVLTRALQLAIQLGDPELLRLVWRVFRELVKSSSSS
B35: il10ra_site1_normal_mot_HHH_b1_07641_af2_000000285_0001_1_21_H_._HHH_b2_08153_0001_0000100011_0000001_0_af2pred_0001 (protein)
chain: SSSSNEESERVMELLRRVAELLKEGNPEEAEELVQEALEIAEELGNLAAAFSARYLLELISSSSS
B36: il10ra_site1_normal_mot_b26a303360aa2756ef5b79665ce52f45_0001_000000179_0001_1_11_H_._HHH_b2_08001_af2_0001_0000700018_0000001_0_af2pred_dldesign_0_af2pred (protein)
chain: SSSSSSSTSQKIIELIKKASELEDKEEARKVLEEALALAKAANNPVFVHAVEYRLSLLSSSSSSS
B37: il10ra_site1_normal_mot_HHH_b2_01447_af2_000000258_0001_1_20_H_._HHH_b2_04530_0001_0000300019_0000002_0_af2pred_0001 (protein)
chain: SSSSSDVTEEVAELAEEVAELEREGDKEEAEEVLRKAKEIAEENNNYVFRVALEFLEEILSSSSS

These binders were tested against il10ra, Q13651 (assay: yeast display titration).

Apparent Kd, inactive:
B1 no binding seen
B2 no binding seen
B3 no binding seen
B4 no binding seen
B5 no binding seen
B6 no binding seen
B7 no binding seen
B8 no binding seen
B9 no binding seen
B10 no binding seen
B11 no binding seen
B12 no binding seen
B13 no binding seen
B14 no binding seen
B15 no binding seen
B16 no binding seen
B17 no binding seen
B18 no binding seen
B19 no binding seen
B20 no binding seen
B21 no binding seen
B22 no binding seen
B23 no binding seen
B24 no binding seen
B25 no binding seen
B26 no binding seen
B27 no binding seen
B28 no binding seen
B29 no binding seen
B30 no binding seen
B31 no binding seen
B32 no binding seen
B33 no binding seen
B34 no binding seen
B35 no binding seen
B36 no binding seen
B37 no binding seen

At a glance, some entries already given:
Apparent Kd, inactive:
B23 no binding seen
B24 no binding seen
B25 no binding seen
B26 no binding seen
B27 no binding seen
B28 no binding seen
B29 no binding seen
B30 no binding seen
B31 no binding seen

From publication PMC10163288
